{"source": "PubChem BioAssay AID588499", "about": "(NMMLSC, 2011)", "note": "Among all 360,000 compounds or so, about 610 (0.17%) were called active. The inconclusive results got no clear call from the source; some entries with a clear call stand among them for comparison. No stated cut-off is given here; in the data, active means inhibition above about 30%; inconclusive means no clear call, values can overlap the other calls; inactive means below that.", "data": [{"test_system": "Botulinum neurotoxin type A light chain protease (Clostridium botulinum A str. ATCC 3502)", "test": "blockers of BoNT/A LC substrate cleavage – biochemical, flow cytometry, MLPCN library, primary screen (AID 588499); further: plate controls were buffer without enzyme for full effect and enzyme alone for no effect", "conditions": "multiplex microsphere protease substrate cleavage, at 10 µM, active compounds read high", "values": [{"compound": "CCN(CC)c1ccc(C=Nc2ccccc2C)c(O)c1", "inhibition": "active: 50.8%"}, {"compound": "COc1cccc2c1c(NC(=O)c1cc(C)on1)nn2C", "inhibition": "inconclusive: 2.2%"}, {"compound": "CC(=O)c1cccc(NC(=O)c2ccc3c(c2)C(=O)N(Cc2cccnc2)C3=O)c1", "inhibition": "inactive: -0.8%"}, {"compound": "COc1ccc2ccccc2c1C1CC(=O)N2CN(C)CSC2=C1C#N", "note": "(stereo unspecified)", "inhibition": "inconclusive: 1.3%"}, {"compound": "Cc1cccc2c1OCC/C2=N\\NC(=O)COc1ccccc1Cl", "inhibition": "inactive: 0.6%"}, {"compound": "S=c1[nH]nc(C2CCCCC2)n1/N=C/C=C/c1ccccc1", "inhibition": "inconclusive: -0.6%"}, {"compound": "O=C(N/N=C/c1cccn1-c1cccc(C(=O)O)c1)Nc1ccccc1", "inhibition": "inactive: 0.5%"}, {"compound": "COc1ccc(NC(=O)c2cn(-c3ccccc3)nc2SC)cc1", "inhibition": "inconclusive: 10.9%"}, {"compound": "O=S(=O)(CCN1C=CC(C(F)(F)F)=NCC1)c1ccc(F)cc1", "inhibition": "inconclusive: -16.1%"}, {"compound": "COCCNC(=O)c1ccc(-c2cn[nH]c2)c2ccoc12", "inhibition": "inactive: 0.2%"}, {"compound": "Cc1oc2c(CN3CCOCC3)c(O)ccc2c(=O)c1-c1ccccc1", "inhibition": "inactive: -1.2%"}, {"compound": "O=C(CC1COc2ccccc2O1)NC1CCCCC1", "note": "(stereo unspecified)", "inhibition": "inactive: -1.2%"}, {"compound": "Cc1cc(C)c2[nH]c(=O)c(C(c3nnnn3CC3CCCO3)N3CCC(C)CC3)cc2c1", "note": "(stereo unspecified)", "inhibition": "inconclusive: -2.2%"}, {"compound": "Cc1ccc(S(=O)(=O)N(C)CCCC(=O)N2CCN(C=O)CC2)cc1", "inhibition": "inconclusive: 5.2%"}, {"compound": "CCOC(=O)N1CCN(C(=O)c2cc3c(=O)n4ccccc4nc3s2)CC1", "inhibition": "inactive: 0.5%"}, {"compound": "Cc1cc(C)cc(NC(=O)CSc2nc3nc(C)cc(C)c3c(=O)[nH]2)c1", "inhibition": "inconclusive: -2.8%"}, {"compound": "CCOC(=O)C(C)(C)Sc1ncnc2nc[nH]c12", "inhibition": "inconclusive: -0.9%"}, {"compound": "COc1ccc(Cl)c2sc(N(CCN(C)C)C(=O)C3=COCCO3)nc12", "inhibition": "inactive: 1.8%"}, {"compound": "Cc1ccc(NC(=O)COC(=O)C2=NN(c3ccccc3)C(=O)CC2)c(Br)c1", "inhibition": "inactive: 0.2%"}, {"compound": "Cn1c(Cc2ccccc2)nnc1SCC(=O)c1ccc(Br)s1", "inhibition": "inactive: -2.1%"}, {"compound": "O=C(COC(=O)c1ccc(F)cc1Cl)NC(=O)NC1CCCC1", "inhibition": "inactive: 0.6%"}, {"compound": "O=C(Cc1ccccc1)NCC(=O)N/N=C/c1cccnc1", "inhibition": "inconclusive: 9.7%"}, {"compound": "O=C(c1c[nH]c2ccccc12)C(F)(F)F", "inhibition": "inconclusive: 14.7%"}, {"compound": "CCCCNC(=O)COC(=O)c1c2c(nc3ccccc13)/C(=C/c1cccs1)CC2", "inhibition": "active: 38.7%"}, {"compound": "CC(C)(C)c1cc(C(=O)NNC(=O)Nc2ccccc2)n(Cc2ccccc2)n1", "inhibition": "inconclusive: -0.8%"}, {"compound": "Cc1cccc2[nH]c3c(N4CCC5(CC4)OCCO5)ncnc3c12", "inhibition": "inconclusive: 0.3%"}]}]}
